Publication PMC5110245, “Identification and reconstitution of the rubber biosynthetic machinery on rubber particles from Hevea brasiliensis” (eLife, 2016)
These are yes or no findings as the source states them, for the method shown. For some of these results: In cells and extracts the contact can be indirect. Some entries that bind do so weakly or less than the wild type. Where a sequence is shown, tags or fusion partners need not be part of it.

What was measured:
[1] = target: Rubber elongation factor (REF) from Hevea brasiliensis, split-ubiquitin Y2H fusion (Hevea brasiliensis) (UniProt P15252); test: two-hybrid; split-ubiquitin-based Y2H (DUALmembrane Kit 3), pairwise; S. cerevisiae NMY51; bait in pBT3-SUC (Cub-LexA-VP16), prey in pPR3-N (NubG); growth of dilution series on SD(-WL), SD(-WLH), SD(-WLHAde) and SD(-WLHAde) with 1 mM 3-AT, 30°C
[2] = target: T1, Small rubber particle protein (SRPP) from Hevea brasiliensis, split-ubiquitin Y2H fusion (Hevea brasiliensis) (UniProt O82803); test: as above
T1 sequence: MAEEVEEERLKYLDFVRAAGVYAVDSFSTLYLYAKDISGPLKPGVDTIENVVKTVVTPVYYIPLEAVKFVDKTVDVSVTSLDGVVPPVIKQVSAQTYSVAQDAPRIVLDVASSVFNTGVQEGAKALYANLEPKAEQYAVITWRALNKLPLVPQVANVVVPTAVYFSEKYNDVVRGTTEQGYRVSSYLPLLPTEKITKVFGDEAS

[3] = target: Rubber elongation factor (REF) fused to a split mVenus fragment (BiFC) (Hevea brasiliensis) (UniProt P15252); test: split reporter; BiFC with split mVenus fragments (pDOE-05 or pDOE-07) in agroinfiltrated N. benthamiana leaf epidermal cells, confocal microscopy 2 days after infiltration; also with REF:mCherry co-expressed (Figure 4B)
[4] = target: HRT2 (cis-prenyltransferase from Hevea brasiliensis), split-ubiquitin Y2H fusion (Hevea brasiliensis) (UniProt Q8W3U4); test: two-hybrid; split-ubiquitin-based Y2H (DUALmembrane Kit 3), pairwise; S. cerevisiae NMY51; bait in pBT3-SUC (Cub-LexA-VP16), prey in pPR3-N (NubG); growth of dilution series on SD(-WL), SD(-WLH), SD(-WLHAde) and SD(-WLHAde) with 1 mM 3-AT, 30°C

B1: Rubber elongation factor (REF) from Hevea brasiliensis, split-ubiquitin Y2H fusion (protein, UniProt P15252 1-138)
chain: MAEDEDNQQGQGEGLKYLGFVQDAATYAVTTFSNVYLFAKDKSGPLQPGVDIIEGPVKNVAVPLYNRFSYIPNGALKFVDSTVVASVTIIDRSLPPIVKDASIQVVSAIRAAPEAARSLASSLPGQTKILAKVFYGEN
Q: For B1, which binding [1] is on record?
A: binds

Q: And the binding [2]?
A: binds

B2: Rubber elongation factor (REF) fused to a split mVenus fragment (BiFC) (protein, UniProt P15252 1-138)
chain: MAEDEDNQQGQGEGLKYLGFVQDAATYAVTTFSNVYLFAKDKSGPLQPGVDIIEGPVKNVAVPLYNRFSYIPNGALKFVDSTVVASVTIIDRSLPPIVKDASIQVVSAIRAAPEAARSLASSLPGQTKILAKVFYGEN
Q: Which binding [3] does the source give for B2 here?
A: binds

B3: HRT2 (cis-prenyltransferase from Hevea brasiliensis), split-ubiquitin Y2H fusion (enzyme, UniProt Q8W3U4 1-284)
chain: MELYNGERPSVFRLLGKYMRKGLYSILTQGPIPTHIAFILDGNGRFAKKHKLPEGGGHKAGFLALLNVLTYCYELGVKYATIYAFSIDNFRRKPHEVQYVMNLMLEKIEGMIMEESIINAYDICVRFVGNLKLLDEPLKTAADKIMRATAKNSKFVLLLAVCYTSTDEIVHAVEESSKDKLKSDEICNDGNGDCVIKIEEMEPYSEIKLVELERNTYINPYPDVLIRTSGETRLSNYLLWQTTNCILYSPHALWPEIGLRHVVWAVINCQRHYSYLEKHKEYLK
Q: For B3, which binding [4] is on record?
A: no binding
